Literature values as cited in patent US20180140566A1, “ACETAMINOPHEN AND TRAMADOL COMPOUND ORAL SOLUTION” (BORA PHARMACEUTICALS CO., LTD., priority 2016, published 2018).

Details: in words

CC(=O)Nc1ccc(O)cc1 [acetaminophen]
solubility in water: dissolves poorly
